Test results reported in publication PMC6378236.
No constants are given. Whether binding was seen depends on the method and setting. Some results given as binding are weak or reduced against the parent protein; the word gives no strength.

By UniProt entry, the sequences of proteins in these tests, tags left out. Residues count along the entry.
UniProt P13128, residues 25-529: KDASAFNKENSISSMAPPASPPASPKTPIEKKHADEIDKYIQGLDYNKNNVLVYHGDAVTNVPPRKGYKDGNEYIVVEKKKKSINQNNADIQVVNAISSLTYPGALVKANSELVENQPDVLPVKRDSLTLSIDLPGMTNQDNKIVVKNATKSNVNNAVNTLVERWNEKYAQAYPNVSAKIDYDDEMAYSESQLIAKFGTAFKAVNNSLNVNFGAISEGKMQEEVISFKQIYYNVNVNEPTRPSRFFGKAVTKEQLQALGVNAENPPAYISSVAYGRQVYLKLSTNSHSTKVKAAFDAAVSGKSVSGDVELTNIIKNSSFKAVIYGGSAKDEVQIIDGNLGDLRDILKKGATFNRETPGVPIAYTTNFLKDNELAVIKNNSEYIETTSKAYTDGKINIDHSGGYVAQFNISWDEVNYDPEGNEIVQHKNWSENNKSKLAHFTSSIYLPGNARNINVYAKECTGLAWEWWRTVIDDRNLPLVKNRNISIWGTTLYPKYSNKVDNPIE

Molecular target: Listeriolysin O (LLO), recombinant (Listeria monocytogenes) (UniProt P13128)
Test: SDS-PAGE and Western blot of oligomers and monomers; recombinant LLO incubated at 37°C for 30 minutes in acidic buffer with high concentrations of chloride, with or without baicalein; oligomers and monomers detected by Western blot, optical density by ImageJ; both purified

Substance: Listeriolysin O (LLO), recombinant (from UniProt P13128 25-529)
- binding: binds
